## Library screen at single concentrations

By UniProt entry, the sequences of proteins in these tests, tags left out. Residues count along the entry.
UniProt P9WFT3, whole entry: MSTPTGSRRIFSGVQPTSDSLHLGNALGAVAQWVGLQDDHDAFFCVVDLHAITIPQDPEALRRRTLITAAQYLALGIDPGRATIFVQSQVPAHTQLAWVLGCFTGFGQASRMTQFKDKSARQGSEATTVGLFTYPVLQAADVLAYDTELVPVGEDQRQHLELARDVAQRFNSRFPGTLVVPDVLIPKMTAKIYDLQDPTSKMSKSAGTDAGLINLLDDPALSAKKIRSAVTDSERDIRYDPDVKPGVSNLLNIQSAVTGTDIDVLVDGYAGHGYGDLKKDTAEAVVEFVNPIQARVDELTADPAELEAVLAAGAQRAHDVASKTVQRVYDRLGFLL
UniProt A4I591, 1-473: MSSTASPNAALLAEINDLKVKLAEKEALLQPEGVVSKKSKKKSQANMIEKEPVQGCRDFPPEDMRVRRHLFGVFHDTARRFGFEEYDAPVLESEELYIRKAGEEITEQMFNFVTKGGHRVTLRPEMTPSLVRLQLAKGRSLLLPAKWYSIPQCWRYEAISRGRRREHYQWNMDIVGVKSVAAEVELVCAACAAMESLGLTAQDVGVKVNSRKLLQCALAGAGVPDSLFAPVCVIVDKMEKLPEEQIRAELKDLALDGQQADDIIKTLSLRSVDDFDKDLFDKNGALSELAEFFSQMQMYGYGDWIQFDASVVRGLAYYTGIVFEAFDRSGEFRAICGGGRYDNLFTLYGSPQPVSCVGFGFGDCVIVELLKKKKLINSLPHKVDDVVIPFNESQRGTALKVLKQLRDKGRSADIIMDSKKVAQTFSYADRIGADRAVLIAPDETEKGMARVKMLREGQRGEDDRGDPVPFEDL

Data taken from ChEMBL document CHEMBL3988442, “University of Dundee, Small-Polar-MMV Screening Library” (2021).

MtTrpRS: 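Enzyme assay of tryptophanyl-tRNA synthetase; the read-out is not stated. Target: Tryptophan-tRNA ligase, Mycobacterium tuberculosis (UniProt P9WFT3). Concentration: 10 µM. Higher most likely means stronger inhibition; the record gives no direction and few retests gave an IC50. Of about 65,000 compounds tested this way, about 64 (0.098%) reached 50% or more in at least one test.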
LiHisRS: 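Histidine-tRNA ligase, Leishmania infantum (UniProt A4I591). Enzyme assay of histidyl-tRNA synthetase; the read-out is not stated. Concentration: 30 µM. The record gives no direction; compounds that gave an IC50 in retests scored well above the rest, so higher reads as stronger inhibition. The assay is labelled LdHisRS but filed under L. infantum. About 69,000 compounds were tested under these conditions; 0.6% (about 410) showed 50% or more at least once.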

Values are the deposited “Percent Effect”, in %. The record does not define 0% and 100%; most values in the screen are far below 50% and negative numbers occur (in some assays of this library far below -100). The compounds are a random part of those screened. A dash means the value is not listed here; it may have been measured.

structure	MtTrpRS	LiHisRS
O=S(=O)(CC1CCCCO1)Nc1cnn(CC(F)F)c1 (centres undefined)	0.3799%	15.32%
CC(C)n1c(C2CCCN(CCS(C)(=O)=O)C2)nc2ccccc21 (centres undefined)	-3.189%	15.38%
Cc1nn(C)c(Oc2ccccc2)c1CNC1CCCCNC1=O (centres undefined)	-5.47%	4.167%
Cc1cc(N(Cc2cccs2)C2CC2)n2nc(C(F)(F)F)nc2n1	-6.289%	25.71%
COCCN1CCC(NCc2c(F)cccc2F)C1 (centres undefined)	12.04%	25%
CC(C)Oc1ncccc1CNC(=O)c1cnccn1	0.2825%	9.649%
COCCNC(=O)CN1CC=C(n2c(C)nc(=O)c3ccccc32)CC1	-4.903%	16.11%
COc1ccc(C(C)n2ccnc2-c2cc3n(n2)CCCNC3)cc1F (centres undefined)	0.2863%	33.33%
CC(=O)NCCNc1cc(C)nc2cc(C)nn12	-0.6717%	14.29%
O=C1C(NCc2nnc3n2CCCC3)CCCN1c1ccccc1 (centres undefined)	-3.224%	9.174%
O=C(CCc1ccncc1)Nc1ccc(OCC2CCOCC2)cc1	-0.5093%	16.67%
CN(C)C(=O)N1CC2(CCOCC2)c2cc(NC(=O)CCO)ccc21	-2.422%	22.22%
Cc1cccc(C(CNC(=O)NCc2cc[nH]n2)N2CCOCC2)c1 (centres undefined)	-2.288%	14.68%
N#Cc1cccc(CN(CC(=O)N2CCCC2)CC2CCCO2)c1 (centres undefined)	0.8922%	16.44%
Cc1cc(C)n(CC2CN(c3nnc(C)c(C)c3C#N)CCO2)n1 (centres undefined)	3.327%	30.36%
CCOc1nc2cccnc2n(CC(=O)NCCOC)c1=O	-2.315%	14.56%
Cc1noc(C)c1CN(Cc1ccccc1)C(C)C	3.64%	3.419%
CC(C)(C)c1c[nH]c([C@@H]2COCCN2C2CCCCC2)n1	0.3794%	17.57%
O=C(CCCNc1ncccn1)N1CCCC(n2cccn2)C1 (centres undefined)	-1.267%	-2.703%
COc1ccc2[nH]c3c(N(C)CC4OCCO4)ncnc3c2c1	-21.93%	1.124%
CC(C)[C@@H](CO)Nc1cc(-c2cn[nH]c2)ncn1	-	8.571%
CC1CN(C(=O)c2cc(=O)[nH]c3ccc(F)cc23)CCO1 (centres undefined)	12.49%	20%
CCN1C(=O)CCC12CCCN(S(=O)(=O)c1cccc(C)c1)CC2 (centres undefined)	3.314%	19.42%
CN1CCOCC12CCN(Cc1ccoc1)CC2	-	15.09%
COc1c(CNCc2nnc3n2CCCCC3)c(C)nn1C	-2.998%	10.67%
Cc1cc(NC(=O)CCN2CCn3c(C)nnc3C2)no1	3.336%	4.959%
O=C(Nc1ccccc1F)C1=NN(c2ccccc2)C(=O)CN1	2.292%	20.34%
CC(C)(C)c1nc(NS(=O)(=O)c2ccccc2F)no1	-0.7424%	7.317%
COCc1nc(CNC2CCN(C(C)C)CC2)no1	-1.215%	19.44%
COc1ccc(C2CN(c3cc(C)ncn3)CCN2C(C)=O)cc1 (centres undefined)	-2.807%	2.797%
CC(C)NC(=O)NCc1ccccc1NS(=O)(=O)c1ccccc1	6.56%	25%
CCc1nccn1C1CCCN(C(=O)c2ccnc(N(C)C)c2)C1 (centres undefined)	-0.1649%	3.774%
CC[C@H]1CN(S(=O)(=O)c2ccc(OC)cc2)CC[C@H]1CC(=O)O	1.431%	19.44%
Cc1ncc(-c2ccnc(N3CCCCC3)n2)c(=O)[nH]1	-2.111%	9.459%
Cc1cnccc1N1CCCN(C(=O)CCc2n[nH]c(C)c2C)CC1	-0.8081%	8.065%
Cc1nnc(N2CCNCC2)c(C(N)=O)c1C	-0.602%	12.8%
Cc1nc2ccc(C(=O)N3C[C@@H](O)[C@H](N4CCOCC4)C3)cc2[nH]1	10.49%	17.89%
CSc1nnc(C2CCN(C(=O)N3CCOCC3)CC2)n1C(C)C	19.4%	4.317%
Cc1cc(CN2CC[C@]3(C[C@@H](OCC(=O)N(C)C)CO3)C2)no1	-3.025%	20%
CS(=O)(=O)NCC1CCCN(C(=O)COc2ccc(F)cc2)C1 (centres undefined)	-0.3712%	21.28%
CCOCCCNC(=O)c1cc(Br)c2c(c1)OCCO2	-0.3549%	16.13%
COc1ccc(-c2nnc(SC(C)C(=O)NC(C)(C)C)[nH]2)c(OC)c1 (centres undefined)	3.259%	15.18%

The last 2 entries again:

* CCOCCCNC(=O)c1cc(Br)c2c(c1)OCCO2 | MtTrpRS: -0.3549%; LiHisRS: 16.13%
* COc1ccc(-c2nnc(SC(C)C(=O)NC(C)(C)C)[nH]2)c(OC)c1 (centres undefined) | MtTrpRS: 3.259%; LiHisRS: 15.18%